# Assay results taken from patent US6737272B2, “Methods for modulation of oocyte activation” (The Board of Trustees of the Leland Stanford Junior …, priority 1999, dated 2004).
# Tested on: NOS
# Conditions: gamete homogenates; ornithine 1.5 mM, nitro-L-arginine 100 μM
structure (smiles),measurement,value
NCCC[C@H](N)C(=O)O [ornithine],effect on citrulline conversion activity,no inhibition
